Results reported in PubChem BioAssay AID2685 (National Center for Advancing Translational Sciences (NCATS), 2010).
The other results are listed elsewhere or left out. Further columns of the screen follow, without active or inactive calls. The list favours compounds with an active or inconclusive main result. Potencies come from curve fits of mixed quality, noted in brackets.

Assay: qHTS Assay for Lipid Storage Modulators in Drosophila S3 Cells;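 as to cell number change: cells counted by Cell Tracker Red CMTPX staining in the red channel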
Settings: BODIPY lipid droplet fluorescence, 18-24 h; for cell number change: measured here: cell count max response, cells fed with added oleic acid
Procedure, shortened: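 Laser-scanning cytometry quantifies lipid droplet accumulation (500–530 nm total intensity; droplet/cell object ratio) in oleic acid-fed (400 uM added) Drosophila S3 cells treated with a concentration series. 20 uM Triacsin C defined 100% inhibition.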

[1] = measured here: lipid fluorescence (Fed channel) AC50, cells fed with added oleic acid
[2] = measured here: cell number channel AC50, cells fed with added oleic acid

Structure (SMILES)	cell number change [%]	AC50 [1]	AC50 [2]
COc1ccc(NC(=O)C2CCCN(S(=O)(=O)c3cnc[nH]3)C2)cc1 (centres undefined)	-28.5	5.8 µM [rising, full curve]	–
Cc1occc1C(=O)N1CCN(C(=O)C2CCCO2)CC1 (centres undefined)	-2.05	23.1 µM [falling, partial curve]	–
CCNC(=O)N1CCOCC1	-19.1	0.206 µM [falling, full curve, poor fit]	–
COc1ccc(N2C(=O)[C@@H]3[C@H](C2=O)[C@H](C(C)=O)N2c4ccccc4C=C[C@@H]32)cc1	9.5	–	0.164 µM [rising, full curve, poor fit]
Cc1ccccc1NC(=O)OCCN1CCN(Cc2ccccc2)CCC1=O	23.6	–	–
CCCOP(=O)(OCCC)c1nc(-c2ccccc2)oc1NCc1ccccc1	15.2	1.84 µM [rising, full curve, poor fit]	–
N#C/C=C(/c1ccc(F)cc1)N1CCOCC1	52.6	0.58 µM [rising, single point]	18.4 µM [rising, single point]
O=C(Nc1ccc(Cl)c(Cl)c1)Nc1nnc(-c2ccncc2)s1	97.8	2.06 µM [rising, single point]	29.1 µM [rising, single point]
CCn1c(N2CCN(S(=O)(=O)c3ccccc3C(F)(F)F)CC2)nc2ccccc21	-8.09	–	–
CCc1nc(Nc2ccccc2OC)c2oc3ccccc3c2n1	60.4	16.4 µM [rising, partial curve]	18.4 µM [rising, single point]
S=C(NC1CCCCC1)N1CCc2ccccc2C1	-7.94	–	–
COc1ccc(CN2CCN(C(=O)c3ccc(CNS(=O)(=O)c4ccc(C)cc4)cc3)CC2)c(OC)c1OC	-29.8	29.1 µM [rising, single point]	–
O=C(NC1CCCCCCC1)c1ccc(F)cc1	-4.17	0.651 µM [falling, single point]	0.58 µM [falling, single point]
Cc1cc(C=C2C(=O)c3ccccc3C2=O)c(C)n1C	25.1	–	–
CCOC(=O)C1=C(CC)OC(N)=C(C#N)C1c1ccc(OC)c(C)c1OC (centres undefined)	–	16.4 µM [rising, single point]	–
Nc1nnc(CC(=O)N/N=C/c2cccc([N+](=O)[O-])c2)s1	-9.21	–	–
COc1ccc(C(=O)Nc2cccc(/C(C)=N\NC(=O)c3ccoc3C)c2)cc1OC	-26.5	0.58 µM [rising, single point]	–
Cc1ccc(C(=O)NCC2CCCO2)cc1N1CCCC1=O (centres undefined)	-29	–	–
NC(=O)CC(NC(=O)Cc1ccc(Br)cc1)c1ccc(NCc2ccccn2)c([N+](=O)[O-])c1 (centres undefined)	12.5	8.2 µM [rising, partial curve, poor fit]	–

Structure (SMILES)	cell number change [%]	AC50 [1]	AC50 [2]
C=CCNC(=S)/C(=C(/[O-])c1ccccc1Br)[n+]1ccccc1	48.6	–	–
Cc1nnc(-c2ccccc2)c[n+]1[O-]	2.24	2.59 µM [rising, full curve, poor fit]	–
O=C(COc1ccc([N+](=O)[O-])cc1)Nc1ccc(N2CCN(C(=O)c3ccco3)CC2)cc1	–	3.26 µM [falling, partial curve, poor fit]	–
Cc1cc2nc3n(c2cc1C)CC1CC(C(=O)NCc2cccc(Br)c2)N(C)C31 (centres undefined)	9.77	0.58 µM [rising, partial curve]	–
COc1ccc2oc(C(=O)OCC(=O)N(CCC#N)c3ccccc3)c(C)c2c1	28.2	29.1 µM [rising, single point]	–
CCCN(CC1CC1)C(=O)CCc1nnc(C(OC)c2ccccc2)o1 (centres undefined)	-13.7	11.6 µM [falling, partial curve]	–
Cc1c(CCOC(=O)CC23CC4CC(CC(C4)C2)C3)sc[n+]1CC(=O)c1ccccc1	-56.3	18.4 µM [falling, single point]	25.9 µM [falling, single point]
COc1ccnc(Oc2ccc(F)cc2)c1C(=O)N/C=N/OCc1ccc(F)cc1Cl	–	–	1.84 µM [rising, partial curve]
COC(=O)CN1C(=O)C(O)(CC(=O)c2ccccc2)c2ccccc21 (centres undefined)	-6.14	18.4 µM [falling, partial curve, poor fit]	0.731 µM [falling, partial curve, poor fit]
CCNc1ccc(C(=O)Nc2ccc3nc(C)sc3c2)cc1[N+](=O)[O-]	-3.61	–	–
S=C(Nc1cccc(Cl)c1)N1CCN(c2ccccn2)CC1	-6.88	25.9 µM [falling, single point]	–
O=C(O)COn1c(-c2ccccc2)nc2ccc([N+](=O)[O-])cc21	-9.55	1.64 µM [falling, partial curve]	1.46 µM [falling, partial curve, poor fit]
O=C1CC(c2ccccc2)CC(O)=C1C=NCCc1ccccc1 (centres undefined)	26.5	0.326 µM [falling, single point]	–
COc1cccc(C(=O)NC2CCN(C(=O)N3CCCCC3)CC2)c1	-34	16.4 µM [falling, partial curve, poor fit]	11.6 µM [falling, partial curve]
CC(C)C(NS(=O)(=O)c1cccc2nsnc12)C(=O)Nc1nccs1 (centres undefined)	-18.1	0.731 µM [falling, partial curve, poor fit]	0.164 µM [falling, full curve, poor fit]
CCC1Cc2c(nc(N)c3c(N)nc(N4CCCCC4)c(C#N)c23)O1 (centres undefined)	80.5	29.1 µM [rising, single point]	3.26 µM [rising, full curve]
CSc1nc(-c2ccccc2)nc(NC(C)=O)c1C(C)=O	76.9	–	3.26 µM [rising, full curve]
O=C(CCl)N1c2ccccc2CCc2ccccc21	-30.2	16.4 µM [falling, partial curve]	20.6 µM [falling, single point]

Only cell number change [%], for some of the entries so far:
Structure (SMILES) | cell number change [%]
COc1ccc(NC(=O)C2CCCN(S(=O)(=O)c3cnc[nH]3)C2)cc1 (centres undefined) | -28.5
Cc1occc1C(=O)N1CCN(C(=O)C2CCCO2)CC1 (centres undefined) | -2.05
